Results as given in the supplement of paper PMC3334620.
In all, about 33,000 sequences were measured (“E-score (-0.5 to 0.5)”: median about -8e-05, highest 2% from about 0.23 on). The list shows a part of the results.

These sequences were tested against T1, Nrg2 (UniProt P38082) (assay: PBM E-score (8-mer binding enrichment) (E-score (-0.5 to 0.5)); higher = stronger / more preferred TF binding). Details: protein concentration: 100 nM; construct: GST-full length.
T1 sequence: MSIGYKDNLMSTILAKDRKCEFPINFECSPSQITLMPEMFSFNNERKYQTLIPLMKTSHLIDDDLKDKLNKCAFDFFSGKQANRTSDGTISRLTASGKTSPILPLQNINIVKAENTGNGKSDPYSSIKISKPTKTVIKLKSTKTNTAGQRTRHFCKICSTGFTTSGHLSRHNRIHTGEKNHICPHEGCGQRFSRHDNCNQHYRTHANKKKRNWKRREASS
Method in brief: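 Universal all-10-mer Agilent arrays, double-stranded by primer extension on fresh or once-stripped slides, were probed with about 100-200 nM GST-tagged yeast transcription factors made by PURExpress. Fluorescent anti-GST detected bound protein, and masliner normalised the scans. E-scores from the Universal PBM Analysis Suite were given to each ungapped eight-base word pooled with its reverse complement.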

Sequence | PBM E-score
CGGCTAAG | 0.0639
CCTCTATA | -0.141
ACGAAAAA | 0.00232
CCCCGCAG | -0.0231
CGCGCGTC | 0.262
CGCAGCGA | -0.0266
ATATGAGG | 0.0351
ATTGTCGC | 0.136
GAAACGGA | 0.0917
AAGCAGTG | -0.0406
GGCCACAA | 0.0535
CGAAGCCC | -0.108
CGCAGGCC | 0.0329
TGGTATAA | 0.105
AGATATCA | 0.174
GAACTTCC | 0.032
CATAGCGC | 0.146
CATAACGC | -0.0304
TAAGCTCA | -0.119
AAGCTCAG | -0.104
AAACGAAA | 0.206
CCACACGA | 0.034
CGTTTGAG | -0.111
TAGGAACA | -0.0468
GTTCCCCA | -0.0328

Sequence | PBM E-score
AACGCGTT | 0.115
GATGTGAA | 0.147
AAACTTCC | -0.139
GATATACC | 0.162
CCATTCCA | -0.0852
CTGGGAGC | -0.244
AGGAGGGC | -0.161
GGCACCGA | -0.128
CTGTGGGC | -0.0967
CGGAGACA | 0.0791
CCATACCC | -0.178
CAACAGAG | 0.0505
AAAACATC | 0.0143
AACGCGTC | 0.0607
GCGAAATA | 0.0146
GAAGCAAC | 0.119
CGCGGTGA | 0.0503
CCCCCGGA | -0.299
ACCCTTAT | 0.28
AAAATTCG | 0.224
AATCGCGC | 0.23
AGCTCACC | -0.118
ACAACCAT | 0.24
AGTCCGAG | 0.154
AGCACTGG | -0.148

Sequence | PBM E-score
TACTACTA | 0.179
GATCCAAA | 0.284
CCACTGAG | -0.153
ACCGCATC | 0.159
AGATCACC | -0.00667
CGCGATTC | 0.173
AACATTAA | 0.0923
AGTACAGA | 0.115
TACCGGGA | 0.0107
CTCATCTA | -0.0918
ACACTCGT | 0.015
CGAATCAG | 0.122
AAGAGGAG | -0.174
ATACCTAG | 0.16
CACCTTTA | -0.121
GAGTTATC | 0.153
AGTGTGTA | 0.101
CATCCCAC | -0.286
GATTCAAA | -0.0297
CAGAGCCG | 0.0124
ACGCCCCG | 0.103
CCTGACAC | 0.072
CGGCGCCA | 0.0132
GATAGTGC | -0.0437
ACTAATGG | 0.145

Sequence | PBM E-score
AATGTCCA | -0.00033
CAAATTCA | 0.0673
CCACCCGC | 0.0031
ACACCACT | 0.156
AACAAGCT | 0.129
GTTTGGGA | 0.0768
GTAATTGA | 0.00642
GACCGGGA | -0.164
CTAGCTAC | -0.177
ATGGCAAT | 0.00222
GATTTACC | 0.17
ACCAGATG | -0.0443
CCAGACCC | 0.00894
CAGATTCG | -0.0367
AGGCGCCA | 0.176
GGTGACAC | -0.0741
CGGGCCCC | 0.119
CCGAGGGA | -0.0812
GGGACTCA | 0.0716
TCGCACGA | -0.00406
AATCATGA | 0.167
CCTGCTCC | -0.163
CCAAGTCA | 0.057
AATAAAAG | 0.0308
AGTTTGGC | 0.0586

Copied from the list.
CCAAGTCA – PBM E-score: 0.057
AACAAGCT – PBM E-score: 0.129
AATGTCCA – PBM E-score: -0.00033
ATGGCAAT – PBM E-score: 0.00222
CAAATTCA – PBM E-score: 0.0673

Later entries

Sequence | PBM E-score
TCAAGACA | -0.0728
AAAAACTT | -0.148
CAGCGGGC | -0.0829
CAAACAGG | 0.0572
CCGCCCCC | -0.406
AATACAAG | 0.296
CAGCTCCA | 0.00413
CTCGAAAC | 0.134
CACACGGG | 0.0131
AAGCAAAA | 0.164
GCTTCATA | -0.0128
CTGTGGGA | -0.0261
CAAATACA | 0.203
CTAATTTC | 0.163
GCGATAGC | -0.0188
TAGAGAAA | 0.00442
ATCGATCC | -0.0823
CATGCGCG | 0.083
ATGCTTGG | -0.167
CTACGAGA | 0.0426
ATTTTTCA | 0.0246
AGAAGAGA | -0.076
AAGAAGTC | -0.108
CCTCCCCG | -0.161
CGATCAAA | 0.0805

Sequence | PBM E-score
AGGAATTA | -0.0266
TAACCGCA | 0.162
AATGGAGC | -0.0407
GGTCCGAC | 0.0798
GGGTTAAA | -0.0823
CTTCTGTA | -0.0717
CAGTTTCG | 0.0644
GCGACCGA | 0.0891
AACTTCCC | 0.013
AAGTTTGC | 0.174
CGAGAAAG | -0.0958
CGAGCAGA | -0.0931
AACGCACA | 0.125
GCCGCGGC | 0.193
ATCATGGA | -0.121
ATTTCCTC | -0.00403
CATAGCGG | -0.189
CGCTCTGC | -0.142
AACTCGTA | 0.0795
AGTAATGC | -0.0951
AACCGAGA | 0.128
ATTCGTAG | 0.094
GTAAACCA | 0.0504
CTAGCGGA | -0.125
CACGCGGG | -0.0425

Sequence | PBM E-score
CGAGGCTC | -0.157
CTCCCCAC | -0.024
TCGACAAA | 0.184
GCTAGCCC | -0.15
ATTTTCAG | 0.0863
GGTAAGAA | -0.188
ATCCTCTA | -0.119
ATGGCTAG | -0.00759
CATGATGC | -0.0448
ATAGCTTA | -0.0254
AACGTCGG | 0.0484
GCAGCCCC | 0.0365
ATGGCGCG | 0.0257
CGTGTGCC | -0.114
AGGAGACC | -0.0497
CCGTGCGC | 0.0769
GGATATTA | 0.147
ACCTTACG | -0.0237
CAACTCAG | 0.0285
AGATGCAT | 0.0687
CTGCGTAA | 0.0115
ACCAATAA | -0.036
